# Experimental data from PubChem BioAssay AID445 (National Center for Advancing Translational Sciences (NCATS), 2006).
# Some of the results follow. These are further read-outs of the screen, such as a control signal, another cell line or another target. No call is given for them. Compounds called inactive in the main read-out are mostly missing here. Words in brackets tell the shape of the fitted curve; partial curves, single points and poor fits give uncertain potencies.
# Assay: IkB Signaling
# Conditions: ABC-DLBCL IkBa-CBG/CBR dual luciferase ratio (green luciferase fused to IkBa over red control in OCI-Ly3 lymphoma cells), 4 h; measured here: control luc red channel unless noted
# Method in brief: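 Luminescence ratio of IκBα-fused green versus native red beetle luciferase in OCI-Ly3 cells, 4 h post-doxycycline with compound; red signal alone, scaled from basal (0%) to zero light (-100%), flagged nonspecific or cytotoxic effects.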
row,SMILES,AC50
1,COc1ccc(S(=O)(=O)N(CC(=O)NCCSc2ccccc2)c2ccc(C)cc2)cc1,"3.98 µM [falling, full curve]"
2,CCOC(=O)c1cc(-c2ccccc2)n(CCC(=O)NCCc2cccc(C)c2)c1C,"25.1 µM [falling, single point]"
3,CCOc1ccccc1CNC(=O)CCC(=O)N1CCSc2ccccc21,"20 µM [falling, partial curve]"
4,CCCN(CCC)C(=O)CSc1c2c(nc3ccc(Cl)cc13)CCCC2,"10 µM [falling, partial curve]"
5,O=C(c1cc(-c2ccccc2O)on1)N1CCCC1,"6.31 µM [falling, partial curve]"
6,Cc1ccc(S(=O)(=O)N2CCCC2C(=O)Nc2nc3ccccc3s2)cc1 (stereo not drawn),"15.8 µM [falling, partial curve]"
7,Cc1ccc(C)c(NC(=O)C(Cc2ccccc2)n2cccc2)c1 (stereo not drawn),"20 µM [falling, single point]"
8,COc1ccc(OC)c(NC(=O)Cn2c(=O)n(Cc3ccco3)c(=O)c3cc(OC)c(OC)cc32)c1,"5.01 µM [falling, partial curve]"
9,Brc1ccc(Nc2c3c(nc4nncn24)CCC3)cc1,"31.6 µM [rising, single point]"
10,COc1ccc(Nc2nnc(-c3ccc(C)c(S(=O)(=O)NCc4nc5ccccc5[nH]4)c3)c3ccccc23)cc1,"6.31 µM [falling, partial curve]"
11,Cc1ccc(NC(=O)Cn2nnc(C(=O)NCCc3ccccc3)c2N)cc1,"20 µM [falling, single point]"
12,O=C(NCc1ccc(Cl)cc1)c1ccc2c(c1)NC(=O)C(CS(=O)(=O)Cc1ccc(F)cc1Cl)N2 (stereo not drawn),"15.8 µM [falling, partial curve, poor fit]"
13,O=C(COC(=O)c1ccc(Br)o1)Nc1nc2ccccc2s1,"12.6 µM [falling, partial curve]"
14,COc1ccc(C)cc1NC(=O)c1cc2ccccn2n1,"0.251 µM [rising, full curve]"
15,CCc1ccc(NC(=O)C2CCCN(S(=O)(=O)c3cccc4nsnc34)C2)cc1 (stereo not drawn),"31.6 µM [falling, single point]"
16,CCN(C(=O)CCc1nc(-c2ccc(C)cc2)no1)c1cccc(Cl)c1,"25.1 µM [falling, partial curve]"
17,COC(=O)c1cc2sccc2n1CC(=O)Nc1ccc(C)cc1C,"3.98 µM [rising, partial curve]"
18,CC(C)C[C@H](N)c1nnc(S(=O)(=O)Cc2ccc(F)cc2)o1,"10 µM [falling, partial curve]"

# Ordered by count of non-hydrogen atoms (ascending): 3 of the compounds above
row,SMILES,AC50
14,COc1ccc(C)cc1NC(=O)c1cc2ccccn2n1,"0.251 µM [rising, full curve]"
6,Cc1ccc(S(=O)(=O)N2CCCC2C(=O)Nc2nc3ccccc3s2)cc1 (stereo not drawn),"15.8 µM [falling, partial curve]"
12,O=C(NCc1ccc(Cl)cc1)c1ccc2c(c1)NC(=O)C(CS(=O)(=O)Cc1ccc(F)cc1Cl)N2 (stereo not drawn),"15.8 µM [falling, partial curve, poor fit]"
